This is an account of results in PubChem BioAssay AID1458 (National Center for Advancing Translational Sciences (NCATS), 2008).

Among all 210,000 compounds or so, about 5,900 (2.8%) were called active. About 5% were inconclusive and are not listed. Calls follow the shape of the dose curve; as a rule, active = well fitted activation curve with a large enough effect; inconclusive = small, poorly fitted or top-dose-only effect; inactive = no such curve, though single readings can be large or run the other way. This is a selection; strong and weak results do not stand in their true shares. Entries without a call were filed so in the source.
Potency is read from the fitted curve at half-maximal effect.

A short description of this test: qHTS Assay for Enhancers of SMN2 Splice Variant Expression. Also: nearly all actives have a fitted effect of over 55% in size. As to activity change, positive = activation: % of control where 0% means no effect. Conditions: HEK293 SMN2-luciferase splicing reporter, luminescence, 30-36 h; activity change, positive = activation: at 46.1 µM (top of the series) unless noted. The method, boiled down: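 HEK293 cells carry an SMN2 […]–luciferase reporter in which exon 7 inclusion puts luciferase in frame. Cells were plated 10-12 h before compound addition, then incubated 30-36 h at 37C. ONE-Glo luminescence was read; sodium butyrate at 4.5 mM final served as control.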
`COc1ccc(NC(=O)c2[nH]c(C)c(C(C)=O)c2C)cc1`: the activity change, positive = activation amounted to 402%.

On to `CCOC(=O)c1ccc(NC(=O)c2cc(S(=O)(=O)N3CCOCC3)ccc2O)cc1`, for which the “activity change, positive = activation” value was inactive: -46.9%. As for `COC(=O)CN(c1ccccc1F)S(=O)(=O)c1ccccc1`, the activity change, positive = activation came out at 69.9%. For the compound `O=C(CN1C(=O)COc2ccc(Cl)cc21)Nc1ccc2c(c1)OCCO2`, the activity change, positive = activation stood at 25%.

For `Nc1cccc(C(=O)N/N=C/c2ccsc2)c1`, the activity change, positive = activation is 35.5%. For `Cc1ccc(-n2[nH]c(C)c(C=Nc3ccc(C)cn3)c2=O)cc1`, the activity change, positive = activation stood at 33.6%. As for `O=c1c2cc(Cl)ccc2[nH]c(=S)n1Cc1ccccn1`, the activity change, positive = activation was found to be 13.5%. The same measure, in the same setting: to `C=CCNC(=O)CCCC(=O)NCC=C` belongs 33.3%; to `O=C(c1ccc(S(=O)(=O)N2CCOCC2)cc1)N(c1cccc(Cl)c1)C1C=CS(=O)(=O)C1` (stereo not drawn), inactive: -32.1%. In the case of `Cn1c(O)c(N=NC(=O)c2ccco2)c2ccccc21`, the Potency was active: 10 µM. On to `N#CC1=C(N)Oc2n[nH]c(-c3ccc(F)cc3)c2C1c1ccncc1` (stereo not drawn), for which the activity change, positive = activation turned out to be 31.7%. Take `Cc1ccccc1Nc1nnc(SCC2CCCCO2)s1` (stereo not drawn): the Potency is active: 11.2 µM. Same read-out and setting: to `COc1ccc(-c2cc(=O)c3cc(OC)ccc3[nH]2)cc1` belongs active: 2.51 µM. Consider `O=C(NCc1ccccn1)c1nn(-c2ccccc2F)nc1CO`, for which the “activity change, positive = activation” value is inactive: -50.9%. `Cc1ccc(NC(=O)CCn2nc([N+](=O)[O-])cc2C)nc1`: the “activity change, positive = activation” value is inactive: 7.17%. `Cc1nnc2sc(-c3ccco3)nn12`: the activity change, positive = activation amounted to 43.5%. On to `CCOC(=O)c1c(C)[nH]c(C(=O)Nc2ccc(C)c(Cl)c2)c1C`, for which the Potency is active: 11.2 µM.

Turning to `O=C(CSc1nnc(Cc2ccccc2)o1)N1CCCC1`, the activity change, positive = activation is 35.8%. On the same count and under the same terms, under `Cn1c(CN2CCOCC2)nc2cc(NC(=O)c3ccccc3Cl)ccc21` stands -37%; under `O=C(Nc1nccs1)C(c1ccccc1)N1CCCC1` (stereo not drawn), inactive: 2.89%. For the compound `COc1ccc(C(=O)NC(=S)Nc2ccc(N3CCOCC3)c(Cl)c2)cc1[N+](=O)[O-]`, the activity change, positive = activation is -65%. For the compound `CCOC(=O)N1CCN(Cc2nc(N)nc(Nc3ccc(Oc4ccccc4)cc3)n2)CC1`, the activity change, positive = activation was -67.4%.

`CC1CCN(S(=O)(=O)c2ccc(NC(=O)CSc3ncccc3C(=O)O)cc2)CC1`: the activity change, positive = activation worked out at 23.4%. In the case of `COc1ccccc1NC(=O)C(=O)Nc1ccccn1`, the Potency is active: 15.8 µM.

On to `COC(Cc1nnc(SC)n1-c1ccc(Cl)cc1)OC`, for which the activity change, positive = activation came out at 15.4%.

For the compound `Cc1cccc(NC(=S)N(CCCN2CCCC2)Cc2cccn2Cc2ccc(Cl)cc2)c1`, the activity change, positive = activation is -78.4%. Still for that read-out and setting: under `C/C(=N\NC(=O)COc1ccccc1-c1ccccc1)c1ccccn1` stands inactive: -58.3%; under `CCOC(=O)CSC1=C(C#N)C(c2ccccc2C)C2=C(CCCC2=O)N1` (stereo not drawn), 54%. For the compound `COc1ccc(-c2noc(CN(C(=O)c3c(-c4ccccc4Cl)noc3C)C(C)C)n2)cc1`, the activity change, positive = activation was -48.8%. For `CC(=O)Nc1nc(-c2ccc3c(c2)CCN3S(C)(=O)=O)cs1`, the Potency is active: 10 µM. For `CCOc1ccc(NC(=O)COc2nsnc2N2CCCCC2)cc1`, the “activity change, positive = activation” value was inactive: -31.8%. Regarding `Cc1ccc(-c2nnn(CC(=O)N(c3ccccc3)C(C(=O)NC3CCCC3)c3ccco3)n2)o1` (stereo not drawn), the activity change, positive = activation was determined as 37.9%. With `CCOC(=O)c1c(-c2cccc([N+](=O)[O-])c2)csc1NC(=O)CCCOc1ccccc1OC`, the activity change, positive = activation was -31.3%. Turning to `CS(=O)(=O)Nc1ccccc1C(=O)O`, the activity change, positive = activation is 45.2%. As to `c1ccc(CSc2n[nH]c(-c3ccco3)n2)cc1`, the activity change, positive = activation was found to be 61.3%. With `CCCCN(C(=O)CSc1nnc(Nc2ccccc2)s1)c1c(N)n(CCC)c(=O)[nH]c1=O`, the activity change, positive = activation is 44.9%.

In the case of `Cc1ccc(Nc2nc3ccccc3s2)cc1`, the Potency is active: 2.82 µM. For the compound `CCCCNc1nc(C)nc2c1nc(-c1ccccc1)n2CCN1CCCCC1`, the “activity change, positive = activation” value was inactive: -30.3%.

For `O=C(N/N=C/c1ccc2c(c1)OCO2)c1ccccn1`, the Potency was active: 3.55 µM. Turning to `CC(=O)Nc1ccc(NC(=O)c2cccc(-c3cc4ccccc4oc3=O)c2)cc1`, the Potency is active: 10 µM. In the case of `Cc1nc2ccc(NC(=O)c3cccs3)cc2c(=O)n1Cc1ccc(Cl)cc1`, the “activity change, positive = activation” value was inactive: -102%. Consider `Clc1ccc(CSc2nnc(-c3c[nH]c4ccccc34)o2)cc1`, for which the activity change, positive = activation was 15.7%. In the case of `CCOC(=O)c1sc(NC(=O)c2ccc(S(=O)(=O)N3CCCCCC3)cc2)nc1-c1ccccc1`, the “activity change, positive = activation” value is inactive: -78.5%. `NC(=O)CSCc1c(Cl)cccc1Cl`: the activity change, positive = activation worked out at 42%. For the compound `O=C(Nc1nc2ccc([N+](=O)[O-])cc2s1)c1ccco1`, the Potency is active: 3.55 µM. As to `COc1cc2[nH]c(=O)n(CCC(=O)NC3CCCC3)c(=O)c2cc1OC`, the activity change, positive = activation amounted to 41.6%. Consider `CC(NC(=O)C1CCC1)c1ccccc1` (stereo not drawn), for which the activity change, positive = activation was found to be 38.1%. As to `CC1CCCCN1S(=O)(=O)c1ccc(C(=O)Nc2ccccc2-c2nc3ccccc3[nH]2)cc1` (stereo not drawn), the activity change, positive = activation is -58.6%.

In the case of `Nc1cc[n+](CC(=O)c2ccc3c(c2)OCCO3)cc1`, the activity change, positive = activation was -54.6%. The same measure, in the same setting: to `CS(=O)(=O)N1CCN(c2ccc(NC(=O)C(c3ccccc3)c3ccccc3)cc2)CC1` belongs inactive: -46.1%; to `Cc1ccc(C)n1-c1cccc(NC(=O)c2ccccc2)c1`, 35.1%; to `Fc1ccc([C@H]2CCNCC2COc2ccc3c(c2)OCO3)cc1` (stereo partly drawn), inactive: 0.812%. In the case of `NC(=O)COC(=O)c1ccc2c(c1)S(=O)(=O)N=C1CCCCCN12`, the activity change, positive = activation was determined as 43.2%.
